Some of the results follow. The main result of the screen is listed elsewhere. These columns were measured beside it and carry no call. The list favours compounds with an active or inconclusive main result. Potencies come from curve fits of mixed quality, noted in brackets.
Assay: qHTS Assay to Find Inhibitors of Chronic Active B-Cell Receptor Signaling
Conditions: ABC-DLBCL IkBa-CBG/CBR reporter, luminescence ratio (green luciferase fused to IkBa over red control in TMD8 lymphoma cells), 4 h
Outline: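 Compounds up to 46 uM were incubated four hours with TMD8 cells whose green CBG68 luciferase is fused to IkappaBalpha; red CBR luminescence normalised the signal, and concentration-effect curves were fitted to fusion, red and ratio data.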

[1] = measured here: CBR red luminescence, cell number
[2] = measured here: IkBa-CBG green luminescence

| Structure (SMILES) | AC50 [1] | AC50 [2] |
| --- | --- | --- |
| Cc1cc(N/N=C/c2ccccc2Br)nc2ccccc12 | 0.411 µM [rising, full curve] |  |
| CN1CCN(C2=C(Cl)C(=O)N(c3ccc(Cl)cc3)C2=O)CC1 | 11.2 µM [falling, partial curve, poor fit] |  |
| C/C(=N\NC(=O)c1ccco1)c1ccc(-c2ccccc2)cc1 | 0.794 µM [rising, full curve] |  |
| COc1ccc(/C=C/C(=O)Nc2ccccc2F)cc1S(=O)(=O)N1CCOCC1 | 2.06 µM [falling, partial curve] |  |
| CC(C)N(CC(N)=O)c1ncnc2sc(-c3ccccc3)cc12 | 6.31 µM [falling, single point] |  |
| CCSc1nnc(-c2cccs2)o1 | 11.6 µM [rising, single point] |  |
| O=c1cc(CO)oc(CN2CCN(c3ccccc3)CC2)c1O | 12.6 µM [rising, partial curve, poor fit] |  |
| O=C(O)c1ccccc1NC(=O)c1cc2ccccc2oc1=O | 2.82 µM [falling, full curve] |  |
| COc1ccc(N2CCN(Cc3nc4c(c(=O)n(C)c(=O)n4C)n3C(C)C)CC2)cc1 | 20 µM [rising, single point] |  |
| CCOC(=O)c1sc2ncn(/N=C/c3cccnc3)c(=O)c2c1C | 29.1 µM [rising, single point] |  |
| C/C(=N\NC(=O)c1ccc(CSc2nncn2C)cc1)c1ccc(Cl)cc1 | 20.6 µM [rising, single point] |  |
| C[C@H](CO)N1C[C@H](C)[C@@H](CN(C)C(=O)Nc2ccccc2)Oc2ccc(NC(=O)C3CCCCC3)cc2C1=O | 18.4 µM [rising, partial curve, poor fit] |  |
| CC(=O)Nc1ccc(N=Cc2c(O)c(C(=O)Nc3ccccc3)cc3ccccc23)cc1 | 1.26 µM [falling, full curve] |  |
| Cc1cc(C(=O)NNC(=O)c2sccc2C)c(C)o1 | 16.4 µM [falling, partial curve] |  |
| CC(C)n1cc(NC(=O)COc2ccccc2Cl)cn1 | 2.51 µM [rising, full curve, poor fit] |  |
| Cc1cccc(NC(=S)NC2CCCC2)n1 | 10 µM [rising, partial curve, poor fit] | 15.8 µM [falling, partial curve, poor fit] |
| CCCN(CCC)C(=O)CC(c1ccccc1)c1cc(C)ccc1O (stereo not drawn) | 32.6 µM [falling, single point] |  |
| CCn1c(=O)cc(SCC(=O)Nc2ccc(OC)c(OC)c2)c2ccccc21 | 20.6 µM [falling, single point] |  |
| O=C1C(=C2CCCCC2)SC(=S)N1Cc1ccco1 | 35.5 µM [rising, single point] | 35.5 µM [falling, single point] |
| CN(C)CCC(c1ccc(Cl)cc1)c1ccccn1 (stereo not drawn) | 1.84 µM [falling, partial curve] |  |
| CC(C)C[C@H](NC(=O)NC(C)C)C(=O)O | 0.517 µM [falling, full curve, poor fit] |  |

| Structure (SMILES) | AC50 [1] | AC50 [2] |
| --- | --- | --- |
| Cc1cc(N/C(=N\S(=O)(=O)c2ccc(F)cc2F)c2ccccc2)no1 | 6.51 µM [falling, partial curve, poor fit] |  |
| O=C(CCCCCN1C(=O)CCC1=O)Nc1ncn[nH]1 | 6.51 µM [rising, single point] |  |
| CC1CCCN(c2ccc([N+](=O)[O-])s2)C1 (stereo not drawn) | 12.6 µM [falling, partial curve] |  |
| CCOC(=O)N1CCC(NC(=O)c2cc3c(-c4ccccc4F)nn(C)c3s2)CC1 | 4.11 µM [rising, full curve, poor fit] |  |
| Cc1cc2[nH]c(=O)cc(-c3ccccc3)n2n1 | 14.1 µM [falling, partial curve, poor fit] |  |
| Cn1cccc1/C=N/NC(=O)c1ccn[nH]1 | 16.4 µM [falling, partial curve, poor fit] |  |
| C=CCn1c(CSCc2ccc(C)cc2)nnc1SCC(=O)NCc1ccccc1 | 29.1 µM [falling, single point] |  |
| COc1ccccc1NC(=O)Nc1nc(CC(=O)Nc2ccc(F)c(F)c2)cs1 | 29.1 µM [falling, single point] |  |
| COc1ccc(C(=O)N2CC(c3ccccc3)CC2=O)cc1 (stereo not drawn) | 0.891 µM [rising, full curve, poor fit] |  |
| C/C(CC(=O)NC12CC3CC(CC(C3)C1)C2)=N\NC(=O)c1cnccn1 | 20 µM [falling, partial curve, poor fit] |  |
| CCn1c(=NC(=O)c2ccc(S(=O)(=O)N(C)C)cc2)sc2cccc(OC)c21 | 7.08 µM [falling, partial curve] |  |
| CCN(CC)S(=O)(=O)c1cc(NS(=O)(=O)c2ccccc2)ccc1C |  | 14.6 µM [rising, partial curve, poor fit] |
| Cc1noc(C)c1S(=O)(=O)N(C)C[C@H]1Oc2ccc(NS(=O)(=O)c3ccccc3)cc2C(=O)N([C@H](C)CO)C[C@@H]1C | 1.3 µM [rising, full curve] |  |
| CCOc1ccc(OCC)c(NC(=O)C2CCN(S(=O)(=O)c3ccc4c(c3)CC(C)N4C(C)=O)CC2)c1 (stereo not drawn) | 5.62 µM [falling, full curve] |  |
| Cc1ccc(C(=O)OCC(=O)N2CC(=O)Nc3ccccc32)s1 | 10 µM [rising, partial curve] |  |
| CC(C)(C)NC(=O)C(=O)NCc1ccccn1 | 15.8 µM [rising, partial curve, poor fit] |  |
| COc1cc(NC(=O)c2ccc(N3CCCC3=O)cc2)cc(OC)c1 | 29.1 µM [falling, single point] |  |
| O=C(NC(=S)NCc1ccc(-c2nc3ccccc3s2)cc1)c1ccco1 | 3.26 µM [rising, full curve, poor fit] |  |
| Nc1nc(-c2ccc(Br)s2)c(Br)s1 | 0.82 µM [rising, partial curve] |  |
| O=C(NC(=S)Nc1ccc(S(=O)(=O)Nc2nccs2)cc1)c1ccc(F)cc1 |  | 16.4 µM [rising, partial curve, poor fit] |

One compound at a time (already shown):
`Cc1ccc(C(=O)OCC(=O)N2CC(=O)Nc3ccccc32)s1` in the list: AC50 [1]: 10 µM [rising, partial curve]
`Cc1cc2[nH]c(=O)cc(-c3ccccc3)n2n1` in the list: AC50 [1]: 14.1 µM [falling, partial curve, poor fit]

Rewritten as labelled records: two of the compounds above
Cc1ccc(C(=O)OCC(=O)N2CC(=O)Nc3ccccc32)s1
  AC50 [1]: 10 µM [rising, partial curve]
CC(C)(C)NC(=O)C(=O)NCc1ccccn1
  AC50 [1]: 15.8 µM [rising, partial curve, poor fit]
